Data reported in publication PMC3542343.
No constants are given. Whether binding was seen depends on the method and setting. In cells and extracts the contact can be indirect. Some results given as binding are weak or reduced against the parent protein; the word gives no strength. Where a sequence is shown, tags or fusion partners need not be part of it.

Protein sequences, listed by entry. Tags and fused reporters are not part of them.
UniProt P55064: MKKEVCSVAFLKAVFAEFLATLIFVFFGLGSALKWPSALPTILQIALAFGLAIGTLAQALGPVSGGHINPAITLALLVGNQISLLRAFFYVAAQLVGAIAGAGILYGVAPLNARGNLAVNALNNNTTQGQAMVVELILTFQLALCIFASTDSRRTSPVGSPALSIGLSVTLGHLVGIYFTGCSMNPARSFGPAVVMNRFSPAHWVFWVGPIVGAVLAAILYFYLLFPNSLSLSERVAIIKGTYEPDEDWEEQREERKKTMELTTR

Biological target: FLAG-AQP5 (human) (UniProt P55064)
Assay: co-IP; GFP-AQP2 and FLAG-AQP5 co-expressed in 293T cells; IP-IB with antibodies as indicated in the figure; FLAG antibody used for immunoprecipitation

- binding: binds
B1: green fluorescence protein (GFP)-AQP2 (protein, UniProt P41181 1-271)
chain: MWELRSIAFSRAVFAEFLATLLFVFFGLGSALNWPQALPSVLQIAMAFGLGIGTLVQALGHISGAHINPAVTVACLVGCHVSVLRAAFYVAAQLLGAVAGAALLHEITPADIRGDLAVNALSNSTTAGQAVTVELFLTLQLVLCIFASTDERRGENPGTPALSIGFSVALGHLLGIHYTGCSMNPARSLAPAVVTGKFDDHWVFWIGPLVGAILGSLLYNYVLFPPAKSLSERLAVLKGLEPDTDWEEREVRRRQSVELHSPQSLPRGTKA
